Percent effect of library compounds

Amino acid sequences for entries named in this document (tags omitted). Residues count along the entry.
UniProt Q4DA54, 1-478: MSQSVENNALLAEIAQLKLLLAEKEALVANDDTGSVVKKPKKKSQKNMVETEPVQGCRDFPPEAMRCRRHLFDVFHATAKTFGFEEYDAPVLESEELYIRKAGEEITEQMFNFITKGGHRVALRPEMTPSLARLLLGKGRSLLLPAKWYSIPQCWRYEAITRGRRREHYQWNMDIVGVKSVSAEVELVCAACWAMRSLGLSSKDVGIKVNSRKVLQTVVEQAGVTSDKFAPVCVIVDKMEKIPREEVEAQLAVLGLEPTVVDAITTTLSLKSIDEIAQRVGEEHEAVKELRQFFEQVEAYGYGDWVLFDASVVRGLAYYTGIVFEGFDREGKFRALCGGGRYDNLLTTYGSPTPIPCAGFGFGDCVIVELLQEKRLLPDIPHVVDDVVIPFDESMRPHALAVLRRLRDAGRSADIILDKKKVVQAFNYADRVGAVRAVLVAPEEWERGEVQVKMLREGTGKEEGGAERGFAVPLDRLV
UniProt A4I591, 1-473: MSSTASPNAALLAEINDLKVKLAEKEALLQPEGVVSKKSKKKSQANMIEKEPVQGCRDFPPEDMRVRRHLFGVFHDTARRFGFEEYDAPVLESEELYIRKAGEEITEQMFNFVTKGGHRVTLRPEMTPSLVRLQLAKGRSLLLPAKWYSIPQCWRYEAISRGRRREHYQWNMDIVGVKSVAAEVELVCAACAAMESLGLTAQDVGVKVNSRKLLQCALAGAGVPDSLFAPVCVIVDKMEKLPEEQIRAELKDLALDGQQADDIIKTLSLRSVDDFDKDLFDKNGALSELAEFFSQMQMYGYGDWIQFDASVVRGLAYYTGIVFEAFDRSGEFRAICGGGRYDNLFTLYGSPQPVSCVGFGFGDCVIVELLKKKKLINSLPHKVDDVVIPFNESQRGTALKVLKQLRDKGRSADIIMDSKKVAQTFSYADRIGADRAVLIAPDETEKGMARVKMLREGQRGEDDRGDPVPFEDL

Measurements from “University of Dundee, Small-Polar-MMV Screening Library” (2021), ChEMBL document CHEMBL3988442.

T. brucei: 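Whole-parasite assay of Trypanosoma brucei over 72 hours; the read-out is not stated. Concentration: 30 µM. The record gives no direction; compounds that gave an IC50 in retests scored well above the rest, so higher reads as stronger inhibition. Values scatter widely below zero; nearly all retest evidence comes from the higher of the two concentrations used. Size under these conditions: about 64,000 compounds, about 940 of them at 50% or above in at least one test.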
TcHisRS: 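Enzyme assay of histidyl-tRNA synthetase; the read-out is not stated. Target: Histidine-tRNA ligase, Trypanosoma cruzi CL Brener (UniProt Q4DA54). Concentration: 30 µM. Higher reads as stronger inhibition (inferred: compounds with an IC50 in retests scored well above the rest). About 69,000 compounds were tested under these conditions; 0.045% (about 31) showed 50% or more at least once.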
LiHisRS: 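Histidine-tRNA ligase, Leishmania infantum (UniProt A4I591). Enzyme assay of histidyl-tRNA synthetase; the read-out is not stated. Concentration: 30 µM. Higher reads as stronger inhibition (inferred: compounds with an IC50 in retests scored well above the rest). The assay is labelled LdHisRS but filed under L. infantum. Of about 69,000 compounds tested this way, about 410 (0.6%) reached 50% or more in at least one test.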

Each number is a percent effect as filed.
The record does not define 0% and 100%; most values in the screen are far below 50% and negative numbers occur (in some assays of this library far below -100).
The compounds are a random part of those screened.

{"structure": "Cc1nnc(CN(C)CCc2nc(-c3cccc(Cl)c3)no2)n1C", "T. brucei": -25.28, "TcHisRS": 1.786, "LiHisRS": 18.28}
{"structure": "[H][C@@]12C[C@H](C)O[C@]1([H])CCN(S(=O)(=O)c1ccc(F)cc1)C2", "T. brucei": 11.4}
{"structure": "COc1ccc(NC(=O)NCC(O)c2ccc(F)cc2F)c(OC)c1", "stereo": "stereo not drawn", "T. brucei": -10.06, "TcHisRS": 3.383, "LiHisRS": 18.92}
{"structure": "O=C(C1CCCOC1)N1CCN(CC(F)(F)F)c2ccccc21", "stereo": "stereo not drawn", "T. brucei": -29.08, "TcHisRS": 8.04, "LiHisRS": 15.29}
{"structure": "CC(C)CN1C(=O)CC[C@H]2CN(C(=O)Cn3ccc(=O)cc3)CC[C@H]21", "TcHisRS": -1.754, "LiHisRS": 14.52}
{"structure": "COc1cc(C#N)ccc1OCC(=O)N(C1CC1)C(C)c1ccco1", "stereo": "stereo not drawn", "T. brucei": -28.25, "TcHisRS": 5.419, "LiHisRS": 22.37}
{"structure": "N#CCCN(Cc1ccco1)C(=O)CCCNC(=O)c1ccccc1", "T. brucei": -19.63, "TcHisRS": 8.434, "LiHisRS": 18}
{"structure": "[H][C@@]12CCCO[C@]1([H])[C@H](Oc1cccnc1)CN2C(=O)c1cscn1", "T. brucei": -2.269}
{"structure": "CNC(=O)CCNC(=O)CCc1c(C)nc2cc(O)nn2c1C", "T. brucei": -13.97, "TcHisRS": 2.299, "LiHisRS": 5.217}
{"structure": "CN(CC(N)=O)Cc1csc(-c2ccc(F)cc2)n1", "T. brucei": -20.86, "TcHisRS": 10.5, "LiHisRS": 19.28}
{"structure": "COc1ccc(Cc2nc3c([nH]2)CC(C)(C)CNC3=O)cc1OC", "T. brucei": 1.219, "TcHisRS": -108.8, "LiHisRS": 45.78}
{"structure": "O=C(O)C(F)(F)F.[H][C@@]12OCCN(c3ncc(F)cn3)[C@@]1([H])CC[C@H]2OCCN1CCCC1", "T. brucei": -87.95}
{"structure": "Cc1cc(C)c(CNC(=O)C(C)Oc2ccccc2C#N)c(=O)[nH]1", "stereo": "stereo not drawn", "T. brucei": -3.75, "TcHisRS": 4.819, "LiHisRS": 23.08}
{"structure": "O=C(c1c[nH]c(=O)c(Cl)c1)N1C[C@@H]2CC[C@H](C1)N(Cc1ccccc1)C2", "TcHisRS": 0, "LiHisRS": 15.24}
{"structure": "CNc1ncc(-c2csc(NC(=O)C[C@H]3COCCN3)n2)cn1", "TcHisRS": 5.65, "LiHisRS": 22.86}
{"structure": "CCN1CCN(c2ccc(CNC(=O)c3c(C)noc3C)cn2)CC1", "T. brucei": -25.92, "TcHisRS": -4.151, "LiHisRS": 28.38}
{"structure": "Cc1cc(NC(=O)N2CCCC2C(=O)NC2CC2)c2ncccc2c1", "stereo": "stereo not drawn", "T. brucei": -28.65, "TcHisRS": 1.84, "LiHisRS": 7.407}
{"structure": "COCCN1Cc2ccccc2C2(CCN(S(C)(=O)=O)CC2)C1", "T. brucei": -6.083, "TcHisRS": 6.667, "LiHisRS": 22.22}
{"structure": "Cc1cc(Br)ccc1NCC(=O)Nc1cc(C(C)(C)C)no1", "T. brucei": -3.943, "TcHisRS": 11.31, "LiHisRS": 1.075}
{"structure": "CCn1cc(CN(C)S(=O)(=O)c2ccc(Cl)cc2)cn1", "T. brucei": -17.16, "TcHisRS": 0.5464, "LiHisRS": 13.59}
{"structure": "O=c1ncn(-c2ccc(F)cc2)c2ncccc12", "T. brucei": -23.59, "TcHisRS": 2.062, "LiHisRS": -3.448}
{"structure": "CS(=O)(=O)c1ccccc1-n1cc(NC(=O)CC(F)(F)F)cn1", "T. brucei": -31.48, "TcHisRS": 7.216, "LiHisRS": 19.54}
{"structure": "c1cncc(-c2ccc3c(c2)C2(CCNCC2)CC3)c1", "T. brucei": -72.88, "TcHisRS": -3.797, "LiHisRS": -17.24}
{"structure": "CC(C)CC(=O)N1CC[C@@H]2[C@H](CC1)N(S(C)(=O)=O)CCS2(=O)=O", "TcHisRS": 1.604, "LiHisRS": 19.23}
{"structure": "COc1cc2c(cc1CNC(=O)C(C)n1ccnc1C(C)C)OCCO2", "stereo": "stereo not drawn", "TcHisRS": 0.9662, "LiHisRS": -32.5}
{"structure": "CCCn1c(C)c(CC(=O)NCCNC(C)=O)c2c1CC(C)(C)CC2=O", "T. brucei": -16.05, "TcHisRS": 5.83, "LiHisRS": 10.59}
{"structure": "CC1CCc2nc(O)c(C(=O)NCc3ccccc3F)cc2C1", "stereo": "stereo not drawn", "T. brucei": -47.86, "TcHisRS": 6.818, "LiHisRS": 0}
{"structure": "Cn1cc(S(=O)(=O)NCCc2ccsc2)cn1", "T. brucei": -34.1, "TcHisRS": 1.587, "LiHisRS": 1.333}
{"structure": "CO[C@H]1CN(CC2CCOCC2)[C@@H]2CCCO[C@H]12", "TcHisRS": 2.513, "LiHisRS": 9.901}
{"structure": "[H][C@]12CCN(S(C)(=O)=O)[C@@]1([H])CC[C@H](COCC(=O)N1CCCC1)O2", "T. brucei": -52.74}
{"structure": "Cc1n[nH]cc1CNCC(O)c1ccc(F)c(F)c1.Cl", "stereo": "stereo not drawn", "T. brucei": -25.57}
{"structure": "CCOCCn1nc(C)cc1C(=O)N1CC(C)(C)[C@@](C)(O)C1", "T. brucei": -19.35, "TcHisRS": 0.5025, "LiHisRS": 15.2}
{"structure": "CC(=O)N1CCCC1c1cccc(Cc2ccc(F)cc2)n1", "stereo": "stereo not drawn", "T. brucei": 14.65, "TcHisRS": 2.732, "LiHisRS": 10.95}
{"structure": "CCc1ncc(C(=O)N(C)CC2Cc3ccccc3O2)cn1", "stereo": "stereo not drawn", "T. brucei": -15.12, "TcHisRS": 14.29, "LiHisRS": 15.56}
{"structure": "CC(=O)NCCc1ccc(S(=O)(=O)N(C)C(C)C(C)(C)C)s1", "stereo": "stereo not drawn", "T. brucei": -21.62, "TcHisRS": -2.116, "LiHisRS": 6.061}